Results taken from patent EP4000606A1, “COMPOUNDS FOR CORONAVIRUS INFECTION TREATMENT AND/OR PREVENTION” (priority 2020, dated 2022).

Tested on: SARS-CoV-2
Experiment: microbe, parasite or virus in culture
Assay type: cell-based
Details: Severe acute respiratory syndrome coronavirus 2, 120 h

CCN(CC)CCOc1ccc(C(=C(Cl)c2ccccc2)c2ccccc2)cc1.O=C(O)CC(O)(CC(=O)O)C(=O)O [compound 82, 2-[4-(2-Chloro-1,2-diphenylvinyl)phenoxy]-N,N-diethylethanamine citrate]
IC50: 13.6 µM
